Experimental data from article PMC10406836.
Numbering of substitutions follows the chain as printed. Results are given in words; binding and its absence hold for the method and conditions named. Binding seen in cells or lysates may run through a third protein. A yes stands for co-enrichment or nearness to the bait. Other partners may have been found. For part of these data: Tags and fused reporters may be left off the sequences shown.

The chains behind the UniProt entries cited, without tags or fusion partners. Where a name states a change or a piece, a line headed by the entry shows the natural chain unless it says otherwise.
UniProt Q13557: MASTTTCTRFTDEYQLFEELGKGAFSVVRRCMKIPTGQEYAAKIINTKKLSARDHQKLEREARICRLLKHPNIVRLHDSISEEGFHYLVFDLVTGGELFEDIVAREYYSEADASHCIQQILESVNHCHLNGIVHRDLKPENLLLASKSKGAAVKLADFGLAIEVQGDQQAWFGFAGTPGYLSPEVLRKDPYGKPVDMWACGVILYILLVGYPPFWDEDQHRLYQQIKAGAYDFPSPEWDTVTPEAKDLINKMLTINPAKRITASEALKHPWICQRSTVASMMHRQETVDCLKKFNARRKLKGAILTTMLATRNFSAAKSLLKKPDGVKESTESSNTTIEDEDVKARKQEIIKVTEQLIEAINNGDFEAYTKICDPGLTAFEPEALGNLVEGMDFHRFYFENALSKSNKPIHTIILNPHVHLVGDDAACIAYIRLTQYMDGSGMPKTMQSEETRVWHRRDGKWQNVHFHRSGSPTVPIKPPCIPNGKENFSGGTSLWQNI
UniProt Q13257: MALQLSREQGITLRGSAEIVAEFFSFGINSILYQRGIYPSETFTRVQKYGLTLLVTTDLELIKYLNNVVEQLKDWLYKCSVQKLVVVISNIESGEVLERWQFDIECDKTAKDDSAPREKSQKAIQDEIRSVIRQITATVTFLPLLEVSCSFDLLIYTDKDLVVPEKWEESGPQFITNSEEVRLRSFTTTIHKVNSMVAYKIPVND

Assays:
[1] = biological target: BirA*-CAMK2D (UniProt Q13557); assay: proximity labelling; BioID with Western blot: HEK293T transfected with a BirA* fusion (with or without a co-expressed tagged prey), 50 µM biotin 24 h, lysis in 50 mM Tris, 150 mM NaCl, 1% Triton X-100, streptavidin agarose pull-down overnight at 4 °C; in Fig. 5G with or without 200 ng/ml nocodazole (16 h); in Fig. 5F with or without co-expressed flag-RNF8
[2] = biological target: T1, myc-BirA*-RNF8 (human) (UniProt O76064); assay: as above
T1 sequence: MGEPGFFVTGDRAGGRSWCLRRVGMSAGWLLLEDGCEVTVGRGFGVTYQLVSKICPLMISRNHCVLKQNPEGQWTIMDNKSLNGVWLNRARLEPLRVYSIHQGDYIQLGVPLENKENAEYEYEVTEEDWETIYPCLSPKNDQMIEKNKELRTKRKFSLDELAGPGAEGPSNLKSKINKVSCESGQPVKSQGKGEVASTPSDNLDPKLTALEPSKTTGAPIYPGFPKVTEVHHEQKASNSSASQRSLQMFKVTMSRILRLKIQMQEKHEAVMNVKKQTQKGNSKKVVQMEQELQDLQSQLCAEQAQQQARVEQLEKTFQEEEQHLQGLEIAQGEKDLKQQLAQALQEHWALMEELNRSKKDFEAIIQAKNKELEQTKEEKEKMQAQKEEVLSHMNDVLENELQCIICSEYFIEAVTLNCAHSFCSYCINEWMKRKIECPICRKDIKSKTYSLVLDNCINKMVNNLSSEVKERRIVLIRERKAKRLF

[3] = biological target: T2, BirA*-*RING (RNF8^C403S) (human) (UniProt O76064); assay: as above
T2 sequence: T1 sequence with C403S

[4] = biological target: T1, myc-BirA*-RNF8 (human); assay: proximity labelling; BioID with mass spectrometry: HEK293T transfected with BirA*-GFP, -RNF8 or -*FHA, biotin, streptavidin agarose pull-down of lysates, on-bead digestion, TMT labelling, LC-MS/MS; RNF8 vs GFP and *FHA vs RNF8 compared

| binding [1] | binding [2] | binding [3] | binding [4] | Substance |
| --- | --- | --- | --- | --- |
| binds | – | – | – | HA-MAD2 (from UniProt Q13257 1-205) |
| – | binds | – | – | HA-MAD2^L13A (from UniProt Q13257 1-205) |
| – | binds weakly | binds | – | HA-MAD2^ΔC (from UniProt Q13257) |
| – | binds | – | binds | MAD2 (from UniProt Q13257 1-205) |
